The target in this assay is T1, GST-GFP fused with the C-terminal peptide of ORF6 wild type (49-61 amino acids) (SARS-CoV-2) (UniProt P0DTC6).
T1 sequence: YSQLDEEQPMEID
The assay can be described thus: pull-down; lysates from HeLa cells stimulated with IFN-γ incubated with GST fusion proteins immobilised on GST-beads for 1 h; PY-STAT1 detected by western blot; only the target purified.

Chains of the proteins cited; added tags and fusions are not shown. Lines headed by an entry give the natural chain unless they say otherwise; changes in a name come on top.
UniProt P0DTC6: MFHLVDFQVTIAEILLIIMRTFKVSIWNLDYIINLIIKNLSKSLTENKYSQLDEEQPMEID
UniProt P42224: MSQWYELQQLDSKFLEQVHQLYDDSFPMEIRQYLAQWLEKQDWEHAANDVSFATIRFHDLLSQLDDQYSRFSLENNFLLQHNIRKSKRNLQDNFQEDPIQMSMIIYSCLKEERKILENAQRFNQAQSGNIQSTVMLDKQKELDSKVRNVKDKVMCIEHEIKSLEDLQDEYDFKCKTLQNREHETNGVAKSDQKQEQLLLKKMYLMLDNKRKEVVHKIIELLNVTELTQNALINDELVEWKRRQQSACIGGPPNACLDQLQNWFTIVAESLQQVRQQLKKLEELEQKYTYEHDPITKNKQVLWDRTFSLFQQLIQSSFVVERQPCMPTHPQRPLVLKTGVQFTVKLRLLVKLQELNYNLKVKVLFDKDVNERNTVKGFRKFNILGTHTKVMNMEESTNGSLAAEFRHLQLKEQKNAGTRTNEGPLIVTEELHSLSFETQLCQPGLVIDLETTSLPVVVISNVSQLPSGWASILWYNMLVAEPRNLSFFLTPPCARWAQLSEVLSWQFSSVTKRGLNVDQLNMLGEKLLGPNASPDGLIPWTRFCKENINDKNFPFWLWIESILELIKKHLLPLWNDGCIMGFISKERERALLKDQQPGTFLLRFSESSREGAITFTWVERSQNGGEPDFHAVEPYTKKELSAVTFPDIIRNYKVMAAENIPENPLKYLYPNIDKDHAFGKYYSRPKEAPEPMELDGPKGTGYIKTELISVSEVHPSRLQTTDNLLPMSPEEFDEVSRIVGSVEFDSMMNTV

Results are given in words; binding and its absence hold for the method and conditions named. Binding seen in cells or lysates may run through a third protein. Some results given as binding are weak or reduced against the parent protein; the word gives no strength. Where a sequence is shown, tags or fusion partners need not be part of it.

“endogenous PY-STAT1 in HeLa cells stimulated by IFN-γ (from UniProt P42224 1-750)”: the binding result was “binds”.

For the origin of these results see publication PMC9120032.
